The values that follow come from paper PMC5775349.

The chains behind the UniProt entries cited, without tags or fusion partners.
UniProt P40160: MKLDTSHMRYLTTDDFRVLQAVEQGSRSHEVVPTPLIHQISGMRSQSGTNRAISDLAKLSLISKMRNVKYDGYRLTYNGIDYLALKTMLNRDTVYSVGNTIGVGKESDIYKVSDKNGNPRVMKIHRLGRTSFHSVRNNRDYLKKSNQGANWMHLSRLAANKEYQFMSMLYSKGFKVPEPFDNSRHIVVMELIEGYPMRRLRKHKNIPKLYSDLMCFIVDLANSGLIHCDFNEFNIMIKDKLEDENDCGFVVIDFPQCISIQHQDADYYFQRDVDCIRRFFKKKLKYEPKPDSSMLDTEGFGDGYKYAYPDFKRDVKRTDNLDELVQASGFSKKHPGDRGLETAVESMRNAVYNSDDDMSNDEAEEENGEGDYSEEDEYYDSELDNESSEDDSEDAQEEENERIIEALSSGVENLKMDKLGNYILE

No constants are given. Whether binding was seen depends on the method and setting. Binding seen in cells or lysates may run through a third protein. Some results given as binding are weak or reduced against the parent protein; the word gives no strength. Where a sequence is shown, tags or fusion partners need not be part of it.

Assay [1] addresses TAP-tagged Rio2 (S. cerevisiae) (UniProt P40160). Briefly: co-IP; lysate of a TAP-Rio2 strain expressing HA-tagged WT or S223A uS7; TAP-Rio2 precipitated with IgG-Sepharose; uS7 detected by anti-HA, TAP-Rio2 by anti-CBP.
Assay [2] addresses T1, Ypk1, endogenous (S. cerevisiae (endogenous in yeast cells)) (UniProt P12688).
T1 sequence: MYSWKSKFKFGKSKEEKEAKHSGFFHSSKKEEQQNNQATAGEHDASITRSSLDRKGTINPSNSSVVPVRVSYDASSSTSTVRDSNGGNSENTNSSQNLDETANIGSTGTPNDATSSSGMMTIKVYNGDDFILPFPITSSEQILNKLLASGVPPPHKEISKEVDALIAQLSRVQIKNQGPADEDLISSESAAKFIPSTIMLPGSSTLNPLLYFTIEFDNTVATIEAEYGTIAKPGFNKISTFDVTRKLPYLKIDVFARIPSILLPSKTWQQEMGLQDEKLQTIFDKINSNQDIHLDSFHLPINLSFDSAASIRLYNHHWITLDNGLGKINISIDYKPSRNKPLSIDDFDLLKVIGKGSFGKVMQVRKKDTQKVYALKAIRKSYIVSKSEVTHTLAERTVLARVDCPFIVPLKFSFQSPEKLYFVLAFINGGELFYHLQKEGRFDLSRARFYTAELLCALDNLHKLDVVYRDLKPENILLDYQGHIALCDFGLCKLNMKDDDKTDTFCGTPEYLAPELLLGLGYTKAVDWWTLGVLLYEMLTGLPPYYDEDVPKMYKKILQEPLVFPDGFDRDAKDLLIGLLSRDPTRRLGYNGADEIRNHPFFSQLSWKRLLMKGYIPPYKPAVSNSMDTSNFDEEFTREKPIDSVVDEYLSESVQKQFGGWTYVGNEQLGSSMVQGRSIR
Briefly: co-IP; yeast lysate pre-cleared with Protein G Sepharose; 2xHA-uS7 or Ypk1 immunoprecipitated with anti-HA or anti-Ypk1 antibody and protein G-Sepharose; Western blotting. On the technique in general: Immunoblotting shows a protein as a band on a membrane.

Assay [3] deals with T2, HA-tagged ribosomal protein uS7 (Rps5), wild type (S. cerevisiae) (UniProt P26783).
T2 sequence: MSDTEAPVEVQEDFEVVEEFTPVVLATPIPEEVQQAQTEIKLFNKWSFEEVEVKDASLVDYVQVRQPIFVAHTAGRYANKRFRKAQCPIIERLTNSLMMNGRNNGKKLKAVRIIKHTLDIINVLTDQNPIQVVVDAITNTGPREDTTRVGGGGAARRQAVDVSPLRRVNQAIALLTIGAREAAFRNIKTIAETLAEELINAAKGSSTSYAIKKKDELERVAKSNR
Described as above.

B1: HA-tagged ribosomal protein uS7 (Rps5), wild type (protein, UniProt P26783 1-225)
chain: MSDTEAPVEVQEDFEVVEEFTPVVLATPIPEEVQQAQTEIKLFNKWSFEEVEVKDASLVDYVQVRQPIFVAHTAGRYANKRFRKAQCPIIERLTNSLMMNGRNNGKKLKAVRIIKHTLDIINVLTDQNPIQVVVDAITNTGPREDTTRVGGGGAARRQAVDVSPLRRVNQAIALLTIGAREAAFRNIKTIAETLAEELINAAKGSSTSYAIKKKDELERVAKSNR
Take B1: the binding result is listed as “binds” in assay [1] and “binds weakly” in assay [2].

B2: HA-tagged ribosomal protein uS7 (Rps5) S223A (protein, UniProt P26783 1-225)
chain: MSDTEAPVEVQEDFEVVEEFTPVVLATPIPEEVQQAQTEIKLFNKWSFEEVEVKDASLVDYVQVRQPIFVAHTAGRYANKRFRKAQCPIIERLTNSLMMNGRNNGKKLKAVRIIKHTLDIINVLTDQNPIQVVVDAITNTGPREDTTRVGGGGAARRQAVDVSPLRRVNQAIALLTIGAREAAFRNIKTIAETLAEELINAAKGSSTSYAIKKKDELERVAKANR
As for B2, the binding result in assay [1] is “binds”.

B3: Ypk1, endogenous (enzyme, UniProt P12688 1-680)
chain: MYSWKSKFKFGKSKEEKEAKHSGFFHSSKKEEQQNNQATAGEHDASITRSSLDRKGTINPSNSSVVPVRVSYDASSSTSTVRDSNGGNSENTNSSQNLDETANIGSTGTPNDATSSSGMMTIKVYNGDDFILPFPITSSEQILNKLLASGVPPPHKEISKEVDALIAQLSRVQIKNQGPADEDLISSESAAKFIPSTIMLPGSSTLNPLLYFTIEFDNTVATIEAEYGTIAKPGFNKISTFDVTRKLPYLKIDVFARIPSILLPSKTWQQEMGLQDEKLQTIFDKINSNQDIHLDSFHLPINLSFDSAASIRLYNHHWITLDNGLGKINISIDYKPSRNKPLSIDDFDLLKVIGKGSFGKVMQVRKKDTQKVYALKAIRKSYIVSKSEVTHTLAERTVLARVDCPFIVPLKFSFQSPEKLYFVLAFINGGELFYHLQKEGRFDLSRARFYTAELLCALDNLHKLDVVYRDLKPENILLDYQGHIALCDFGLCKLNMKDDDKTDTFCGTPEYLAPELLLGLGYTKAVDWWTLGVLLYEMLTGLPPYYDEDVPKMYKKILQEPLVFPDGFDRDAKDLLIGLLSRDPTRRLGYNGADEIRNHPFFSQLSWKRLLMKGYIPPYKPAVSNSMDTSNFDEEFTREKPIDSVVDEYLSESVQKQFGGWTYVGNEQLGSSMVQGRSIR
With B3, the binding entry in assay [3] is “binds”.
